Data reported in patent US20210246195A1.

B1: PA12P3D08 (antibody, human IgG1, V domains shown)
VH: QVQLVESGGGVVQPGKSLRLSCAASAFTFRRFAMHWVRQAPGKGLEWVAVISDNGLREDYEDSVKGRFTISRDNSQNTLYLQMNGLRAEDTAVYYCAKVLDYNEYSLYFGMDVWGQGTTVTVSS
VL: EVVLTQSPATLSLSPGERATLSCRTSQAISNNFLAWYQQRPGQPPRLLIYASSRRATDTPDRFTGSGSGTDFTLTITRLEPEDFAVYFCQYYSDSPPYTFGPGTKLEIK
B2: PA12P1C07 (antibody, human IgG1, V domains shown)
VH: B1 VH with V5E, A23V, R30K, Q76K, N77D, G85S, A88P, V93I, N103S, T121L
VL: EIVLTQSPAILSLSPGDRATLSCRTSQTVNSNFLAWYQQKPGQAPRLLIYGASRRAIDIPDRFTGSGSGTEFTLTIARLEPEDFAVYSCQHYSDSPPYTFGQGTKLEIK
B3: PA13P1H08 variant rCDR1-N (antibody, human IgG1, V domains shown)
VH: QVQLVNSGGGVVQPGRSLRLSCVASGFTFSSYGIHWVRQAPGKGLEWVAVISNDGEKSESADSVKGRFTPSRDNSKNTVYLQMNNLRVEDTAVYYCAKVLDYSRYSYYYGMDVWGQGTTVIVSS
VL: EIVLTQSPGTLSLSPGGRGTLSCRTSQTINNAHLAWYQHKPGQAPRLLIYGSSERATGVPDRFSGSGSGSDFTLTISSLEAEDFAVYYCQHYGRSPPYTFGPGTKLDIK
B4: PA13P1H08 variant rCDR2-N (antibody, human IgG1, V domains shown)
VH: B3 VH with S31T, Y32F, N53Y, E56S, K57N, S58K
VL: B3 VL
B5: PA13P1H08 variant rFWRs-N (antibody, human IgG1, V domains shown)
VH: QVQLVESGGGVVQPGRSLRLSCAASGFTFSTFGMHWVRQAPGKGLEWVAVISNDGEKSYYADSVKGRFTISRDNSKNTLYLQMNSLRAEDTAVYYCAKVLDYSRYSYYYGMDVWGQGTTVTVSS
VL: B3 VL
B6: PA15P1D05 (antibody, human IgG1, V domains shown)
VH: QVHLVESGGGVVQPGRSLGLSCVASGFTFNYYAIHWVRQAPGKGLEWVAVVSFDGNIIYYADSVKGRFNISRDNSKNTVNLQMNSLRPDDTAVYYCVRDGEYCSGGNCYWGDFDHWGQGSLVTVSP
VL: EIVLTQSPATLSLSPGERATLSCRASQSISSEYLTWFQQKPGQAPRLLIYGAFNRATGIPDRFSGSGSGTDFTLTISSLEPEDFAVYYCQQYANWWTFGQGTKVEIK
B7: PA15P1D12 (antibody, human IgG1, V domains shown)
VH: B6 VH with V23A, P88A, H115Y, S120T
VL: B6 VL with A9G

Columns and labels:
[1] = target: Ara h 3 (purified natural peanut allergen) (Arachis hypogaea); test: BLI, scatter plot of KDs
[2] = target: Ara h 3 (purified natural peanut allergen) (Arachis hypogaea); test: not named there (biolayer interferometry in Example 1)
[3] = target: Ara h 3 (purified natural peanut allergen) (Arachis hypogaea); test: biolayer interferometry (FIG. 4C)
[4] = target: Ara h 3 (purified natural peanut allergen) (Arachis hypogaea); test: biolayer interferometry

Binder	binding [1]	also measured
B1	binds	–
B2	binds	–
B3	binds	–
B4	binds	binding [2]: binds; binding [3]: binds
B5	binds	–
B6	–	binding [4]: binds
B7	–	binding [4]: binds

Substitutions are numbered along the chain they refer to. These are yes or no findings as the source states them, for the method shown. Binding can be weak; no strength is given.
